Assay results as given in patent US9075014B2, “pH-responsive fluorescent false neurotransmitters and their use” (THE TRUSTEES OF COLUMBIA UNIVERSITY IN THE CITY OF NEW YORK, priority 2011, dated 2015).

Test system: LDCVs in PC-12 cells
Experiment: Two-photon ratiometric pH measurement of secretory vesicles (LDCVs) in PC-12 cells
Conditions: extrapolated from ratio with in situ calibration curve, no drug

NCCc1cc2cc(Cl)c(O)cc2oc1=O [Mini202]
mean pH of LDCVs in PC-12 cells: 5.88±0.08
